The record followed here is article PMC3581573.

By UniProt entry, the sequences of proteins in these tests, tags left out.
UniProt Q6NUA1: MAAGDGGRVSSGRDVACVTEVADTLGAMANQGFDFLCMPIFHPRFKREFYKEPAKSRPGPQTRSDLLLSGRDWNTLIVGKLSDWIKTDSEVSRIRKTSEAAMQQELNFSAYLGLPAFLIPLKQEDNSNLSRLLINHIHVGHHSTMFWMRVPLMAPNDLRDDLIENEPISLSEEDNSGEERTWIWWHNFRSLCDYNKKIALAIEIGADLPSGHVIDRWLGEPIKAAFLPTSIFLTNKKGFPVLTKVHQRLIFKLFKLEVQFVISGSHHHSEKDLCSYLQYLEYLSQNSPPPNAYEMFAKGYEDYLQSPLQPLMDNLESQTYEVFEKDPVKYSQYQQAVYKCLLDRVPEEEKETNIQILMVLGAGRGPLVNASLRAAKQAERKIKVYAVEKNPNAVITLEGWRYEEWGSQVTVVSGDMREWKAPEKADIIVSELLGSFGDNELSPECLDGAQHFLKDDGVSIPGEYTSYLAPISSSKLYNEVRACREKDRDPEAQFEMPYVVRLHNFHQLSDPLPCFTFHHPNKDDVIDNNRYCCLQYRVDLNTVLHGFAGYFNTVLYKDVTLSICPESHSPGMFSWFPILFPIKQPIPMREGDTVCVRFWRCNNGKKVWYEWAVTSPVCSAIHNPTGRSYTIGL
UniProt P05221: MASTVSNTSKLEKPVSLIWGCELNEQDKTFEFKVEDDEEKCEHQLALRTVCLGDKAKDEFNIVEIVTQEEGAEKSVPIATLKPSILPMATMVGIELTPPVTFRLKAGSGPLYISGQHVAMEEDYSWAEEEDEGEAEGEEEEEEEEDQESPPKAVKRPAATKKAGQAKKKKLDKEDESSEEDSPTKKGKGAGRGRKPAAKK

Assay [1] deals with T1, Endogenous MEP50 of Xenopus egg extract (Xenopus laevis (endogenous in Xenopus egg extract)) (UniProt Q6NUD0).
T1 sequence: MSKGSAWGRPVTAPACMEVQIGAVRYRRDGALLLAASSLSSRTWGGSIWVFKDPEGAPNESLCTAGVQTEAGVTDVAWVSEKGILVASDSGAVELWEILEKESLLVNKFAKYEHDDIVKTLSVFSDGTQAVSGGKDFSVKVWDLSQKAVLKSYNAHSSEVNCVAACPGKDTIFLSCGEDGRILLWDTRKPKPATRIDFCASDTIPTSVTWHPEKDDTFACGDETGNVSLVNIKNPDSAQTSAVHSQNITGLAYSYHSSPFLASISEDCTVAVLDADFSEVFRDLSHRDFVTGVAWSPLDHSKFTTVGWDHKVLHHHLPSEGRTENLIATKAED
In words: immunodepletion; anti-MEP50 antibodies on protein A sepharose, two rounds of depletion of Xenopus egg extract (HSS); depleted extract blotted for PRMT5, MEP50 and H4; mock: pre-immune serum.

The target of assay [2] is T2, Xenopus laevis MEP50 (co-expressed with PRMT5) (Xenopus laevis) (UniProt Q6NUD0).
T2 sequence: T1 sequence
Put plainly: negative-stain electron microscopy and 3D reconstruction; PRMT5-MEP50 alone or with Npm at a molar ratio of 1:2; 2% uranyl acetate; class averages and reconstruction, crystal structure fitted; both purified.

Assay [3] concerns the target Xenopus laevis PRMT5-MEP50 complex (Xenopus laevis) (UniProt Q6NUA1+Q6NUD0). The assay is described as above.

No constants are given. Whether binding was seen depends on the method and setting. Some entries that bind do so weakly or less than the wild type.

Turning to “Endogenous PRMT5 of Xenopus egg extract (from UniProt Q6NUA1 1-633) (enzyme)”, in assay [1], the binding result is “binds”.
As for “Recombinant Nucleoplasmin (from UniProt P05221 1-200)”, the binding entry in assay [2] and in assay [3] was “binds” in each case.
